Assay results: patent US4407812A, “Etheral imidazoles and use in treatment of thromboses” (Laboratoires Chauvin-Blache, priority 1980, dated 1983)
At least one structure is not confirmed: it was looked up by name or label, or the drawing left a doubt.

Key:
[1] = system: prostacycline-synthetase of vascular microsomes; test: Use of platelet endoperoxides by the prostacycline-synthetase of vascular microsomes (platelet suspension + aortal microsomes); type: biochemical, human platelets; rabbit aortal microsomes
[2] = Bleeding time (ear) in rabbits; type: in vivo, rabbit; details: single dose 5 mg/kg
Protocol: 2.2 Bleeding time (ear) in rabbits
Groups of 3 male rabbits are treated subcutaneously with the test materials. Bleeding time (BT) is determined just before, and then 2 hours and 4 hours after their administration according to a standard procedure, by a "blind" acting experimenter.

[3] = target: T1, platelet thromboxane synthetase (Homo sapiens, UniProt P24557); test: Inhibition of platelet thromboxane synthetase (14C-arachidonic acid incubated with washed platelet suspension, TLC); type: cell-based
T1 construct: endogenous in cells; host or cells: washed platelets from platelet-rich plasma of venous blood
T1 sequence (P24557 1-533): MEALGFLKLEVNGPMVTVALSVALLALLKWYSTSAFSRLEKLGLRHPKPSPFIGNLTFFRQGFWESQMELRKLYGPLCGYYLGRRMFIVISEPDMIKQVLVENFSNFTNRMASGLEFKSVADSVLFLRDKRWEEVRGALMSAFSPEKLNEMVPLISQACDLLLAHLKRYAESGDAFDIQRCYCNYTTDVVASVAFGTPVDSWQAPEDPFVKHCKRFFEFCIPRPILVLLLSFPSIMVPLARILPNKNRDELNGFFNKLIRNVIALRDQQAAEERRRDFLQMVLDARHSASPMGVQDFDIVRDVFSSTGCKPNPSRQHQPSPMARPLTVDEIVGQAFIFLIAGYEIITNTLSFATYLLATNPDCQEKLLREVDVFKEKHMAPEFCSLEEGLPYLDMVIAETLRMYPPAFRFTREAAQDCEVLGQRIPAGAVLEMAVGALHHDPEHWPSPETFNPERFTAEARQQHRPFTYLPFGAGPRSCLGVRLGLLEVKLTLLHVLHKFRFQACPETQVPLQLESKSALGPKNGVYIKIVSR
Protocol: 1.1 Inhibition of platelet thromboxane synthetase
Platelet rich plasma (PRP) is prepared by centrifugation of venous blood at 150 g×10 min. The platelets are sedimented at 2000 g×20 min. and washed in a tris-HCl buffer at pH 7.5 (15 mM) containing EDTA (1.5 mM), NaCl, (150 mM) and KCl (5 mM). The platelet pellet is then suspended in a volume of tris-HCl (50 mM) at pH 7.5 corresponding to one-half the original PRP volume. Aliquots of platelet suspension (0.5 ml) are incubated with 1 μg ^14 C-arachidonic acid (specific activity=50 mCi/mmole) as the Na salt for 10 min. at 37° C. in the presence or the absence of test material. On completion of the reaction, the incubate is cooled to 0°-4° C., made acidic and salted by addition of citric acid and NaCl and then extracted with 2×2 ml ethyl acetate. A PGE2 standard is added to the extract which, after evaporation to dryness, is submitted to a bidimensional chromatography over a thin layer of silica (Merck F 254) in the systems: (1) benzene/dioxan/acetic acid (60:30:3); (2) chloroform/methanol/acetic acid/water (90:8:1:0.8).
The PGE2 standard is visualized with phosphomolybdic acid in the hot. The radioactivity corresponding to the metabolites of arachidonic acid is measured with a Berthold scanner. […]

[4] = system: arachidonic acid-induced platelet aggregation; test: Ex vivo platelet aggregation in rabbits (arachidonic acid-induced); design: species or system rabbit; details: 5 mg/kg
Protocol: 2.1 Ex vivo platelet aggregation in rabbits
Groups of 3 male rabbits are treated subcutaneously for two consecutive days and their plasma is taken two hrs after the second administration. Arachidonic acid-induced (2 mM) platelet aggregation is measured by the turbidimetric method according to Born.

[5] = compound at 0.01 mM, platelet suspension + microsomes

CCCCCC(O)/C=C/n1ccnc1 (racemic) [Compound A, (E)-1-(3-hydroxy-octen-1-yl)imidazole (racemic)]
effect on the lesser polar materials [1, 5]: almost complete suppression of the lesser polar materials
radioactivity corresponding to thromboxane B2 [1, 5]: 20%
arachidonic acid metabolized to 6-keto-PgF1 α ([1]; compound at 0.01 mM, platelet suspension + microsomes (18% without compound)): 65%
synthesis of prostacycline PGI2 ([1]; conclusion in words): promotes in such a system the synthesis of prostacycline PGI2
synthesis of thromboxane A2 ([1]; conclusion in words): inhibits strongly the synthesis of thromboxane A2
extension of bleeding time at 2 hours ([2]; 2 hours after treatment): extended by a factor of two
extension of bleeding time at 4 hours ([2]; 4 hours after treatment): found to continue at time 4 hours
inhibition of the formation of thromboxane A2 (FIG. 2) ([3]; measured by its stable degradation product): inhibits the formation of thromboxane A2
PGE2 formed concomitantly to thromboxane inhibition (FIG. 2) ([3]; platelet suspension): increasing amounts of PGE2 are formed
arachidonic acid-induced platelet aggregation, effect in words [4]: very substantial decrease of arachidonic acid-induced platelet aggregation
